Measured values published in publication PMC7044329.
No constants are given. Whether binding was seen depends on the method and setting. In cells and extracts the contact can be indirect. A yes stands for co-enrichment or nearness to the bait. Other partners may have been found.

Sequences of proteins named here, by UniProt entry; tags and fusion partners are left off.
UniProt Q9Y2F5: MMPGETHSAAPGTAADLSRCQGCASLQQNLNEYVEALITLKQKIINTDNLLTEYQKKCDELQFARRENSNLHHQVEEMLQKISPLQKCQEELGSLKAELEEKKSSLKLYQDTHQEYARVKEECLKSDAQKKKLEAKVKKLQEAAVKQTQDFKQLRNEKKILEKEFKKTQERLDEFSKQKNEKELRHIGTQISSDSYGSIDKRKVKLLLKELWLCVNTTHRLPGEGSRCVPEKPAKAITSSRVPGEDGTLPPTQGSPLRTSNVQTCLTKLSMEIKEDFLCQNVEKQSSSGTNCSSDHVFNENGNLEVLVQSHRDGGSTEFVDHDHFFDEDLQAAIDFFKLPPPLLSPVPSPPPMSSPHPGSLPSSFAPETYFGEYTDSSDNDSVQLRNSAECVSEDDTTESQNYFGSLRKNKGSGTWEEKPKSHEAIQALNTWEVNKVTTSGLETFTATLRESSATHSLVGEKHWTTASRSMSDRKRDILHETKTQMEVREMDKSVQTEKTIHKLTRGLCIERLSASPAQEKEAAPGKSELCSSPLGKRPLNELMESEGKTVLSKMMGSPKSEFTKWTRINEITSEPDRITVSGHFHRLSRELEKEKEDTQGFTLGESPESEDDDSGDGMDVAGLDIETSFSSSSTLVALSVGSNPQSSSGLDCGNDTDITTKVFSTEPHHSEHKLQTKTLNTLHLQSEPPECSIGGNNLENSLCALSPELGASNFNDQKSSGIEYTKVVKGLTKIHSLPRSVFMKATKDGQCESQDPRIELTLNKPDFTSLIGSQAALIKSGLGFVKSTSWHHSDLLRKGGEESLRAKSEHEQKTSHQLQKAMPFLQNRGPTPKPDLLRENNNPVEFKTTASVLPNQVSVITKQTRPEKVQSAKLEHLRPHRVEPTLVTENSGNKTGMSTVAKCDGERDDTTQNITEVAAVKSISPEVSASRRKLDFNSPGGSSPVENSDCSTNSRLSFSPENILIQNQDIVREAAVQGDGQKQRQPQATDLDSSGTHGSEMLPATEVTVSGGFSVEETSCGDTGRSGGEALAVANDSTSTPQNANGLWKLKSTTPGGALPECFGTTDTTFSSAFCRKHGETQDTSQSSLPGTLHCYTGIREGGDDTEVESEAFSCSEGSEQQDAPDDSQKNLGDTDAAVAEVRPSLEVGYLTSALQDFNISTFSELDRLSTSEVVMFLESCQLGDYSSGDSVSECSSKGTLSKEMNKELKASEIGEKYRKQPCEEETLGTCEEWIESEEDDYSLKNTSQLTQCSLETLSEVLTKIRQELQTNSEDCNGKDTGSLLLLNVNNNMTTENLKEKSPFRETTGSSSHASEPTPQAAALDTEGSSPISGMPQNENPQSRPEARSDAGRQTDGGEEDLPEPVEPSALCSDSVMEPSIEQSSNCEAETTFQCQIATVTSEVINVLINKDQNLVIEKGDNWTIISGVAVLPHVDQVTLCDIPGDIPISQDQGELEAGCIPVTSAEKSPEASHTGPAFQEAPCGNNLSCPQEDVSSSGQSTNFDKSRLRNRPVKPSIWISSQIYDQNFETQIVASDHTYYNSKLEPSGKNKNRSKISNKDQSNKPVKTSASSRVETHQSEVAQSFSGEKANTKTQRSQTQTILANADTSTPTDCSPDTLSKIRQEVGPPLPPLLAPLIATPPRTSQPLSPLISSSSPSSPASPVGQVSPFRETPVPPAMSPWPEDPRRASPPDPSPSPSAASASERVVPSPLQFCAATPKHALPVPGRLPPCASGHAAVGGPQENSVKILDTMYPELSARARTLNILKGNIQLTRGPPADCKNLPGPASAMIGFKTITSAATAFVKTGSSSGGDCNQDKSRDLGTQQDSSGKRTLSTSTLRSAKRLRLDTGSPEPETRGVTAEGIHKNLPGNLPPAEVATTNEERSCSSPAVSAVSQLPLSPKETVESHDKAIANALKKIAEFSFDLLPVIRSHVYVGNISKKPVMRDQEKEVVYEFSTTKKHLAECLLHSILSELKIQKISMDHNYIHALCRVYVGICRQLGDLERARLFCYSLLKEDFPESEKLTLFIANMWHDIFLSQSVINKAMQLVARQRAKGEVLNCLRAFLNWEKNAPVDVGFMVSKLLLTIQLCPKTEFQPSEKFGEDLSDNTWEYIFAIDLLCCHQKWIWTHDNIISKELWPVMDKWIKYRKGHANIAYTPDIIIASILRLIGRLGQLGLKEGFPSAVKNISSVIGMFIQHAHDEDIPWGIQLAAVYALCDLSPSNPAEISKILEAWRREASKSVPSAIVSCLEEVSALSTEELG

B1: ZC3H18 (protein, UniProt Q86VM9 1-953)
chain: MDVAESPERDPHSPEDEEQPQGLSDDDILRDSGSDQDLDGAGVRASDLEDEESAARGPSQEEEDNHSDEEDRASEPKSQDQDSEVNELSRGPTSSPCEEEGDEGEEDRTSDLRDEASSVTRELDEHELDYDEEVPEEPAPAVQEDEAEKAGAEDDEEKGEGTPREEGKAGVQSVGEKESLEAAKEKKKEDDDGEIDDGEIDDDDLEEGEVKDPSDRKVRPRPTCRFFMKGNCTWGMNCRFIHPGVNDKGNYSLITKADPFPPNGAPPLGPHPLMPANPWGGPVVDEILPPPPPEPPTESAWERGLRHAKEVLKKATIRKEQEPDFEEKRFTVTIGEDEREFDKENEVFRDWNSRIPRDVRDTVLEPYADPYYDYEIERFWRGGQYENFRVQYTETEPYHNYRERERERERENRQRERERERERDRERERRQRERERERERERDKERQRRKEEWERERAKRDEKDRQHRDRDREKEREKEKGKPKPRSPQPPSRQAEPPKKEAATTGPQVKRADEWKDPWRRSKSPKKKLGVSVSPSRARRRRKTSASSASASNSSRSSSRSSSYSGSGSSRSRSRSSSYSSYSSRSSRHSSFSGSRSRSRSFSSSPSPSPTPSPHRPSIRTKGEPAPPPGKAGEKSVKKPAPPPAPPQATKTTAPVPEPTKPGDPREARRKERPARTPPRRRTLSGSGSGSGSSYSGSSSRSRSLSVSSVSSVSSATSSSSSAHSVDSEDMYADLASPVSSASSRSPAPAQTRKEKGKSKKEDGVKEEKRKRDSSTQPPKSAKPPAGGKSSQQPSTPQQAPPGQPQQGTFVAHKEIKLTLLNKAADKGSRKRYEPSDKDRQSPPPAKRPNTSPDRGSRDRKSGGRLGSPKPERQRGQNSKAPAAPADRKRQLSPQSKSSSKVTSVPGKASDPGAASTKSGKASTLSRREELLKQLKAVEDAIARKRAKIPGKA
B2: CPSF3 (CPSF73) (protein, UniProt Q9UKF6 1-684)
chain: MSAIPAEESDQLLIRPLGAGQEVGRSCIILEFKGRKIMLDCGIHPGLEGMDALPYIDLIDPAEIDLLLISHFHLDHCGALPWFLQKTSFKGRTFMTHATKAIYRWLLSDYVKVSNISADDMLYTETDLEESMDKIETINFHEVKEVAGIKFWCYHAGHVLGAAMFMIEIAGVKLLYTGDFSRQEDRHLMAAEIPNIKPDILIIESTYGTHIHEKREEREARFCNTVHDIVNRGGRGLIPVFALGRAQELLLILDEYWQNHPELHDIPIYYASSLAKKCMAVYQTYVNAMNDKIRKQININNPFVFKHISNLKSMDHFDDIGPSVVMASPGMMQSGLSRELFESWCTDKRNGVIIAGYCVEGTLAKHIMSEPEEITTMSGQKLPLKMSVDYISFSAHTDYQQTSEFIRALKPPHVILVHGEQNEMARLKAALIREYEDNDEVHIEVHNPRNTEAVTLNFRGEKLAKVMGFLADKKPEQGQRVSGILVKRNFNYHILSPCDLSNYTDLAMSTVKQTQAIPYTGPFNLLCYQLQKLTGDVEELEIQEKPALKVFKNITVIQEPGMVVLEWLANPSNDMYADTVTTVILEVQSNPKIRKGAVQKVSKKLEMHVYSKRLEIMLQDIFGEDCVSVKDDSILSVTVDGKTANLNLETRTVECEEGSEDDESLREMVELAAQRLYEALTPVH
B3: zinc-finger CCCH-type containing 8 (ZC3H8) (protein, UniProt Q8N5P1 1-291)
chain: MDFENLFSKPPNPALGKTATDSDERIDDEIDTEVEETQEEKIKLECEQIPKKFRHSAISPKSSLHRKSRSKDYDVYSDNDICSQESEDNFAKELQQYIQAREMANAAQPEESTKKEGVKDTPQAAKQKNKNLKAGHKNGKQKKMKRKWPGPGNKGSNALLRNSGSQEEDGKPKEKQQHLSQAFINQHTVERKGKQICKYFLERKCIKGDQCKFDHDAEIEKKKEMCKFYVQGYCTRGENCLYLHNEYPCKFYHTGTKCYQGEYCKFSHAPLTPETQELLAKVLDTEKKSCK
B4: ubiquitin-specific peptidase-like 1 (USPL1) (protein, UniProt Q5W0Q7 1-1092)
chain: MMDSPKIGNGLPVIGPGTDIGISSLHMVGYLGKNFDSAKVPSDEYCPACREKGKLKALKTYRISFQESIFLCEDLQCIYPLGSKSLNNLISPDLEECHTPHKPQKRKSLESSYKDSLLLANSKKTRNYIAIDGGKVLNSKHNGEVYDETSSNLPDSSGQQNPIRTADSLERNEILEADTVDMATTKDPATVDVSGTGRPSPQNEGCTSKLEMPLESKCTSFPQALCVQWKNAYALCWLDCILSALVHSEELKNTVTGLCSKEESIFWRLLTKYNQANTLLYTSQLSGVKDGDCKKLTSEIFAEIETCLNEVRDEIFISLQPQLRCTLGDMESPVFAFPLLLKLETHIEKLFLYSFSWDFECSQCGHQYQNRHMKSLVTFTNVIPEWHPLNAAHFGPCNNCNSKSQIRKMVLEKVSPIFMLHFVEGLPQNDLQHYAFHFEGCLYQITSVIQYRANNHFITWILDADGSWLECDDLKGPCSERHKKFEVPASEIHIVIWERKISQVTDKEAACLPLKKTNDQHALSNEKPVSLTSCSVGDAASAETASVTHPKDISVAPRTLSQDTAVTHGDHLLSGPKGLVDNILPLTLEETIQKTASVSQLNSEAFLLENKPVAENTGILKTNTLLSQESLMASSVSAPCNEKLIQDQFVDISFPSQVVNTNMQSVQLNTEDTVNTKSVNNTDATGLIQGVKSVEIEKDAQLKQFLTPKTEQLKPERVTSQVSNLKKKETTADSQTTTSKSLQNQSLKENQKKPFVGSWVKGLISRGASFMPLCVSAHNRNTITDLQPSVKGVNNFGGFKTKGINQKASHVSKKARKSASKPPPISKPPAGPPSSNGTAAHPHAHAASEVLEKSGSTSCGAQLNHSSYGNGISSANHEDLVEGQIHKLRLKLRKKLKAEKKKLAALMSSPQSRTVRSENLEQVPQDGSPNDCESIEDLLNELPYPIDIASESACTTVPGVSLYSSQTHEEILAELLSPTPVSTELSENGEGDFRYLGMGDSHIPPPVPSEFNDVSQNTHLRQDHNYCSPTKKNPCEVQPDSLTNNACVRTLNLESPMKTDIFDEFFSSSALNALANDTLDLPHFDEYLFENY

Biological target: FLAG-tagged ICE1 (interactor of little elongation complex ELL subunit 1) (UniProt Q9Y2F5)
Experiment: affinity purification with mass spectrometry; anti-FLAG agarose purification from nuclear extracts (prepared with Benzonase) of 293FRT cells stably expressing FLAG-ICE1, washes with 0.15 M NaCl, 0.1% Triton X-100, elution with FLAG peptide; MudPIT and gel-based mass spectrometry; parental cells as control

Row | Binder | binding
1 | B1 | binds
2 | B2 | binds
3 | B3 | binds
4 | B4 | binds
